Experimental data as given in the supplement of paper PMC7666118.
The list shows a part of the results.

By UniProt entry, the sequences of proteins in these tests, tags left out. Where a name states a change or a piece, a line headed by the entry shows the natural chain unless it says otherwise.
UniProt O15525: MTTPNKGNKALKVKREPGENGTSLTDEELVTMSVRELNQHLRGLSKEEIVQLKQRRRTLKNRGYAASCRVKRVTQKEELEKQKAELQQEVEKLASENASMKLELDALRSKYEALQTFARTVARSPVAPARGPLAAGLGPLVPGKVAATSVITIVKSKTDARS
UniProt O00754: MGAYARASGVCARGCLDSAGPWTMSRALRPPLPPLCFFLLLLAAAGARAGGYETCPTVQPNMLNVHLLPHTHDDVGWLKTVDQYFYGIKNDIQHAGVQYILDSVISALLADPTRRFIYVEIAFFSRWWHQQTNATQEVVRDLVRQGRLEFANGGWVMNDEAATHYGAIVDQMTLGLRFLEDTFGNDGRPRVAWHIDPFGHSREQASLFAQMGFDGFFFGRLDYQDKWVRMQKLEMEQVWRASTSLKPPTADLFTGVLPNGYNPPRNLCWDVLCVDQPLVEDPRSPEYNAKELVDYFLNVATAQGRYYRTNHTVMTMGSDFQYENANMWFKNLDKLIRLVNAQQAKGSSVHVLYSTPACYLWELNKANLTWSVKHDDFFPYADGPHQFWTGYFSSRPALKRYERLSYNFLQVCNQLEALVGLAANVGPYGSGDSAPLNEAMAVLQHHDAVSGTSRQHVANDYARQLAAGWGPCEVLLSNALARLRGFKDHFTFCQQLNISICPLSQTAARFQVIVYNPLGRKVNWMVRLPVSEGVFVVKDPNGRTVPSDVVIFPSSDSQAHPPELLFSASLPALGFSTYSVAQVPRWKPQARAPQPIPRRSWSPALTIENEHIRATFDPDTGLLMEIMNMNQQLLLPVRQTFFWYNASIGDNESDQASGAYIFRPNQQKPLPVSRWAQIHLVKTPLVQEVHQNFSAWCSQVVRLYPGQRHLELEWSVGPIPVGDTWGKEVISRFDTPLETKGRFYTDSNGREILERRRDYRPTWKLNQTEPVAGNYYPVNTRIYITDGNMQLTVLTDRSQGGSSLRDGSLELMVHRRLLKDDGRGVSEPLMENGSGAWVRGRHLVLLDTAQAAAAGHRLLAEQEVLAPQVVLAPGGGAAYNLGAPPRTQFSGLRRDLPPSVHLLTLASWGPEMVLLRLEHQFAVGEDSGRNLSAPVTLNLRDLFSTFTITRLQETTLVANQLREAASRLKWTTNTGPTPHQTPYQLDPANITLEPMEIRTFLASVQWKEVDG
UniProt Q96GA3: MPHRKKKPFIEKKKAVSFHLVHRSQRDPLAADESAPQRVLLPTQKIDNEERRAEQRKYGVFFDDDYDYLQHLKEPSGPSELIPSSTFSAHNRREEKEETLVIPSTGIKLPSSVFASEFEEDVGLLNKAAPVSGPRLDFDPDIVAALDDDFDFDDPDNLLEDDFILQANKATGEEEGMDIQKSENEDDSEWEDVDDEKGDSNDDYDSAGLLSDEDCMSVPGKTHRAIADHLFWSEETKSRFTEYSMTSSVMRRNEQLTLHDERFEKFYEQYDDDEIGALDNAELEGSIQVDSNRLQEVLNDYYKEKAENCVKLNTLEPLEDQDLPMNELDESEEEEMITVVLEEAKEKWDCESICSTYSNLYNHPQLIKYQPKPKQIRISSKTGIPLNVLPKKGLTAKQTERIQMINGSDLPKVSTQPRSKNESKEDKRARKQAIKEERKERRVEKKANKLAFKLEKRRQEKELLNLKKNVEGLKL
UniProt Q659C4: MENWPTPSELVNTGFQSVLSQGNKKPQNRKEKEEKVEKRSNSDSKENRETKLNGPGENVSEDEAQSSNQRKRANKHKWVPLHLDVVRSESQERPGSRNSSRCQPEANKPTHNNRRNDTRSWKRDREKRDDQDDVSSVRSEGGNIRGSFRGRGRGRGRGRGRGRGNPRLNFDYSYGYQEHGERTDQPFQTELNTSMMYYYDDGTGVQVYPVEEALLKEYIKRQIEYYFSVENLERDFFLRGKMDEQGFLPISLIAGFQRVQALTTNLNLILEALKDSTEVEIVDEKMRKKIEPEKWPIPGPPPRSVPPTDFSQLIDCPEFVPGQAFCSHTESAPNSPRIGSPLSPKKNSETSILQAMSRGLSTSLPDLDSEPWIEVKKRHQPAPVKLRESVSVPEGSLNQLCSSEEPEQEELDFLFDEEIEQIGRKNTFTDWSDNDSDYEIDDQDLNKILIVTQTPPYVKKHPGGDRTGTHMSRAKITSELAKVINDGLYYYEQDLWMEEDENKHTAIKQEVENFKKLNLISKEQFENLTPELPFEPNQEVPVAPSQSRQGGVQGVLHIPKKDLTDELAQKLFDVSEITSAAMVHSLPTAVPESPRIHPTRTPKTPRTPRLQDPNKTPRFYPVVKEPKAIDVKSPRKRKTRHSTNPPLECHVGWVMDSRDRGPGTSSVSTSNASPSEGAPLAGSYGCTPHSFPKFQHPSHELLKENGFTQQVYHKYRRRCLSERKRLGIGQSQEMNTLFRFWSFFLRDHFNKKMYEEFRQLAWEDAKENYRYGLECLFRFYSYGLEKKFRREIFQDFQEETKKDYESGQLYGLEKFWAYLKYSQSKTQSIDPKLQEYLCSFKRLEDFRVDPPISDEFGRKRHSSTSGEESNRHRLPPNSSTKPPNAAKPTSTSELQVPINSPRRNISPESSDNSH
UniProt P53667: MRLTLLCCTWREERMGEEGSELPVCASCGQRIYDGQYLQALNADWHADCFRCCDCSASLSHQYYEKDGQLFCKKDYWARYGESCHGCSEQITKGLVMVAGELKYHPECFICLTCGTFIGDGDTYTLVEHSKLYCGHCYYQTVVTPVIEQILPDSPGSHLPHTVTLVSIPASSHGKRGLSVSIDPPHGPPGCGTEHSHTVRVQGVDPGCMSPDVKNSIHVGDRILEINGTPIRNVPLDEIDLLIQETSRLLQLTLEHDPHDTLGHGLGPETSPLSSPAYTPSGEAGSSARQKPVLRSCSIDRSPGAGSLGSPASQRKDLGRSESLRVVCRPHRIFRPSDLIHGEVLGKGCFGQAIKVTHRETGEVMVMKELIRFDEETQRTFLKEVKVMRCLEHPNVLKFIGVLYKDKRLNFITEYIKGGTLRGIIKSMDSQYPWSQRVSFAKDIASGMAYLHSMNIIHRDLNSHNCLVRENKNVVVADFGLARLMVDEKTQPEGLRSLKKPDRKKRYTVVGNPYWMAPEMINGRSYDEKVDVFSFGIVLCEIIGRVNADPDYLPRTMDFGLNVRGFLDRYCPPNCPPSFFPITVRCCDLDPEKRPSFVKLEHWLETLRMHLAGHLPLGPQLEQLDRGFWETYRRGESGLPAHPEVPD
UniProt Q8N1G4: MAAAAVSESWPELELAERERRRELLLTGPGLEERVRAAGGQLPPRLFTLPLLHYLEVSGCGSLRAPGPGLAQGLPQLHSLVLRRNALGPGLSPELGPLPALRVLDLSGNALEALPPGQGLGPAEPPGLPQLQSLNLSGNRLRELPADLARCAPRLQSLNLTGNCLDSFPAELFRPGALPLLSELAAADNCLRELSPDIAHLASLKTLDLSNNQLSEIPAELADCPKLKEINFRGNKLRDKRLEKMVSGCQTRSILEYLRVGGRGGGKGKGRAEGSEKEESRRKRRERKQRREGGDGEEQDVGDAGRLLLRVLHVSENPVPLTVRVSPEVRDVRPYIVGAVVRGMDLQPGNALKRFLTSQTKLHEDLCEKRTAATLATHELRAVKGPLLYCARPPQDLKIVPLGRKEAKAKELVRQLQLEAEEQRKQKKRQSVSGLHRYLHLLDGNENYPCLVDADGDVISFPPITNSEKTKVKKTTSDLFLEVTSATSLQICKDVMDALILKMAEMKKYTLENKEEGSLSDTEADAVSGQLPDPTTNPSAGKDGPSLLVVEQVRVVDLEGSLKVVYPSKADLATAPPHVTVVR
UniProt O95777: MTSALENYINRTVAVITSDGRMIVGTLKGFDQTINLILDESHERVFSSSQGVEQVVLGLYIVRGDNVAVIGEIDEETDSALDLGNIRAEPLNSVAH
UniProt Q969R5, whole entry: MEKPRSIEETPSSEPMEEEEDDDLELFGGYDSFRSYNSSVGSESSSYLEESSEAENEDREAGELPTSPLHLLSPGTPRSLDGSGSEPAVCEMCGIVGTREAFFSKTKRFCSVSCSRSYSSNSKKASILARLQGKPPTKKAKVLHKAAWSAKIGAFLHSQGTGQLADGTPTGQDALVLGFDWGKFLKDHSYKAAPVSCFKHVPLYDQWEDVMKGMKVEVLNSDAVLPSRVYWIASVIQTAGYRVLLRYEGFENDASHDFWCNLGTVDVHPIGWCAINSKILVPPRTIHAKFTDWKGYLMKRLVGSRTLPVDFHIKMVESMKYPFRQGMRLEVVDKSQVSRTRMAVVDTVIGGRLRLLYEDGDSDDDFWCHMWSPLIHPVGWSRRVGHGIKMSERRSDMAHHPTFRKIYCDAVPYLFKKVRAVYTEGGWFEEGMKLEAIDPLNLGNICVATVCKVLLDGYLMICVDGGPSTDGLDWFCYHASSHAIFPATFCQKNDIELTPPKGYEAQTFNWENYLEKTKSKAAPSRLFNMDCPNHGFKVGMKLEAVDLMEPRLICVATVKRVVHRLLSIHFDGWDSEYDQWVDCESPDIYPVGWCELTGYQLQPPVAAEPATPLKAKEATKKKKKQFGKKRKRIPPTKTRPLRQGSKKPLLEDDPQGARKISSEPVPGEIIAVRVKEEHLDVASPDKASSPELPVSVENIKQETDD
UniProt Q538Z0: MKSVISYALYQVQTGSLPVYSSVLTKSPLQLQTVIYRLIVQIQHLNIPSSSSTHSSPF
UniProt Q15691: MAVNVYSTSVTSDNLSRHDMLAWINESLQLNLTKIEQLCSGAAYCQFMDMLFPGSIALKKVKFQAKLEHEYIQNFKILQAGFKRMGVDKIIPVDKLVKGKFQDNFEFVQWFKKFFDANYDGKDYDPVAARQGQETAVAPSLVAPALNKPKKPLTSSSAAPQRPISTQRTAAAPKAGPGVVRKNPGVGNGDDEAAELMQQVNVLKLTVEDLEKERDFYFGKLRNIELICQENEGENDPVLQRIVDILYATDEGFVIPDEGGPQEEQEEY
UniProt P20700: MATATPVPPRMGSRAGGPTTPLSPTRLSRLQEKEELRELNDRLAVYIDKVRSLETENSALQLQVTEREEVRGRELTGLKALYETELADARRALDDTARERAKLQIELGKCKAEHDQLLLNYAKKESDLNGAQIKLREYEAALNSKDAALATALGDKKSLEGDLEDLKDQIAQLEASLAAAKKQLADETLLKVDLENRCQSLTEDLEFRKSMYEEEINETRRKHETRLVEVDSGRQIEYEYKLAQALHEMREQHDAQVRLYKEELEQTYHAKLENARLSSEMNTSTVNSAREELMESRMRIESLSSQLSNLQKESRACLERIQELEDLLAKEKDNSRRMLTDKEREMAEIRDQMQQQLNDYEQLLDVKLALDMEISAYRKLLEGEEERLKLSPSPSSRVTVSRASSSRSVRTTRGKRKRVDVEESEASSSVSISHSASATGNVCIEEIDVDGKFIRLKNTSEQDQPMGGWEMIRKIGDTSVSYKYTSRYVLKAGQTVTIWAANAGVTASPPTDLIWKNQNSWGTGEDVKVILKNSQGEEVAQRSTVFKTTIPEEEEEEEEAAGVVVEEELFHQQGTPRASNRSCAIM
UniProt P40925: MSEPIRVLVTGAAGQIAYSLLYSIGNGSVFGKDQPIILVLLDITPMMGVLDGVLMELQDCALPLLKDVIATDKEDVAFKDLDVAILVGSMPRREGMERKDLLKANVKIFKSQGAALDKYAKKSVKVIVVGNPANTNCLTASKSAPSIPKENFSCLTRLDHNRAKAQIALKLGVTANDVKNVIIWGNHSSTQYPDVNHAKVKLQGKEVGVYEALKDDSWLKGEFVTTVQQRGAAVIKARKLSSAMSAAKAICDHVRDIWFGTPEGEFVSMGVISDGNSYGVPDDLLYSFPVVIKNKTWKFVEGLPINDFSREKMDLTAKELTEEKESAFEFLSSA
UniProt Q16539, whole entry: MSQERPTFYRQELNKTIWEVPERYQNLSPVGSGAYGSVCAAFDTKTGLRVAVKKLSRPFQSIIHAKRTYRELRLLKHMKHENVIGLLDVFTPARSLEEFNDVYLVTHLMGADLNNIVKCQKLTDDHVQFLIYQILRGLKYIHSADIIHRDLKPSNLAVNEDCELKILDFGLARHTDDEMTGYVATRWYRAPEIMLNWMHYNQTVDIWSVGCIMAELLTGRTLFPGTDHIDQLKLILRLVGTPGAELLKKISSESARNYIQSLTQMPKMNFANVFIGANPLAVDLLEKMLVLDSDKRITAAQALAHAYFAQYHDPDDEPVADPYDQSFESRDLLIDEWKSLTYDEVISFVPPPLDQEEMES
UniProt O60711: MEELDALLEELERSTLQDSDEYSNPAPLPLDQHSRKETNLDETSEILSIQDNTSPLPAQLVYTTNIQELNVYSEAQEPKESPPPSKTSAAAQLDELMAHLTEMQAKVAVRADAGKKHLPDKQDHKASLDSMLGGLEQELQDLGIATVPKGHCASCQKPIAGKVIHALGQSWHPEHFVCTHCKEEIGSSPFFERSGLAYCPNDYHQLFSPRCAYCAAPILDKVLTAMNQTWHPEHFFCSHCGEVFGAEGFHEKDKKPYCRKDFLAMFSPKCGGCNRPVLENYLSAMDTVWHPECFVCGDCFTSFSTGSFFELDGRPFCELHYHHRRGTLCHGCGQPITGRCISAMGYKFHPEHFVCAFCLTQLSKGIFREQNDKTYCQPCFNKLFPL

compound: COc1ccc(Cn2ccc3cc(C)c(C(=O)NO)cc32)cc1; test: dose-dependent thermal stabilisation call (2D-TPP, DLPTP, 10% FDR) (binary (1 = stabilised)); higher = stabilised by the compound; settings: system: HL-60 intact cells; concentration range 0.04-10 µM
Description: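 2D thermal proteome profiling in intact HL-60 cells treated with BRD-3811 (0, 0.04, 0.29, 2, 10 uM) for 90 min at 37 C, then heated 3 min at one of 12 temperatures (42-63.9 C). Soluble protein was quantified by TMT10 MS. The value is the DLPTP call of the paper: dose-dependent thermal stabilisation over all temperatures at 10% FDR (F-test of a dose-response against a flat model); one experiment, one call per tested protein.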

Target | dose-dependent thermal stabilisation call
LOC203547 | inactive: 0
MAFG (UniProt O15525) | inactive: 0
MAN2B1 (UniProt O00754) | inactive: 0
LRRC59 (UniProt Q96AG4) | inactive: 0
LOC100133916 | inactive: 0
MAPK9 (UniProt P45984) | inactive: 0
MAP3K4 (UniProt Q9Y6R4) | inactive: 0
LTV1 (UniProt Q96GA3) | inactive: 0
LARP2 (UniProt Q659C4) | inactive: 0
LIMK1 (UniProt P53667) | inactive: 0
LAMP2 (UniProt P13473) | inactive: 0
LOC27320 | inactive: 0
LPCAT1 (UniProt Q8NF37) | inactive: 0
LRRC47 (UniProt Q8N1G4) | inactive: 0
LRRC8A (UniProt Q8IWT6) | inactive: 0
LIG4 (UniProt P49917) | inactive: 0
LSM8 (UniProt O95777) | inactive: 0
L3MBTL2 (UniProt Q969R5) | inactive: 0

Two entries from above, tab-delimited.
Target	dose-dependent thermal stabilisation call
MAN2B1 (UniProt O00754)	inactive: 0
LAMP2 (UniProt P13473)	inactive: 0

More results:

Target | dose-dependent thermal stabilisation call
LARP1 (UniProt Q6PKG0) | inactive: 0
LUZP6 (UniProt Q538Z0) | inactive: 0
LSM14B (UniProt Q9BX40) | inactive: 0
LSM6 (UniProt P62312) | inactive: 0
LOC100128155 | inactive: 0
LOC283951 | inactive: 0
MAN2A2 (UniProt P49641) | inactive: 0
MAPRE1 (UniProt Q15691) | inactive: 0
LMNB1 (UniProt P20700) | inactive: 0
MDH1 (UniProt P40925) | active: 1
MCL1 (UniProt Q07820) | inactive: 0
MACROD1 (UniProt Q9BQ69) | inactive: 0
MAPK14 (UniProt Q16539) | inactive: 0
LSD1 (UniProt O60341) | inactive: 0
ME2 (UniProt P23368) | active: 1
LZTFL1 (UniProt Q9NQ48) | inactive: 0
LPXN (UniProt O60711) | inactive: 0
MARK2 (UniProt Q7KZI7) | inactive: 0
